# Percent effect of library compounds

By UniProt entry, the sequences of proteins in these tests, tags left out.
UniProt P9WNZ1, whole entry: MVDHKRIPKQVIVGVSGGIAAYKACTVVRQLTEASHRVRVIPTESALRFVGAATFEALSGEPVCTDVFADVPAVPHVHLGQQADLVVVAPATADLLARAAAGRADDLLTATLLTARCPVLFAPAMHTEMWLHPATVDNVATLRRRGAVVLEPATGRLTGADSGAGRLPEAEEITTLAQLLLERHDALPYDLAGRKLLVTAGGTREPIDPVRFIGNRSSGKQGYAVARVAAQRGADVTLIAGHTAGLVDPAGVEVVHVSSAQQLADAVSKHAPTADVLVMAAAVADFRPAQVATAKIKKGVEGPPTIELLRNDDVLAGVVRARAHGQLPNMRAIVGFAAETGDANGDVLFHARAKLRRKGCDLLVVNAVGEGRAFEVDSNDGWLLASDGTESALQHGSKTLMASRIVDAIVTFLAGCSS

The values are deposited in ChEMBL (CHEMBL3988442, “University of Dundee, Small-Polar-MMV Screening Library” (2021)).

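Coenzyme A biosynthesis protein CoaBC, Mycobacterium tuberculosis (UniProt P9WNZ1). Enzyme assay of CoaBC with a phosphate dye (Biomol Green) read at 650 nm. Tested at 30 µM. Higher reads as stronger inhibition, judged from the few compounds that gave an IC50. Most strong results did not repeat in a second test. Size under these conditions: about 67,000 compounds, about 40 of them at 50% or above in at least one test.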

Each number is a percent effect as filed.
How 0% and 100% were set is not recorded. Most values in the screen are low, and negative values occur.
This is an unselected part of the compounds tested.
Two or more numbers in one place are separate tests of the same structure; such repeats can differ widely.

SMILES	Percent Effect
CN(C)c1nccc(C2CCCN2S(=O)(=O)c2cn(C)cn2)n1 (stereo not shown)	9.765%
O=C(C[C@@H]1COC[C@H]2CN(C(=O)c3ccccn3)C[C@@H]12)N1CCCC1	9.532%
Cc1nc(C(=O)N(C)CC(F)(F)C(F)(F)F)c2ccccn12	1.966%
Cc1ccc(CN2CCC3(CC2)NC(=O)CC3c2ccccc2)s1 (stereo not shown)	4.471%
O=C1CCCCCN1CCC(=O)N1CCCC(c2ccn[nH]2)C1 (stereo not shown)	4.637%
COCCc1noc(-c2cn(Cc3ccc(OC)cc3)nn2)n1	3.354%
Cn1ccnc1CC1CCCN(C(=O)Cc2ccccc2)C1 (stereo not shown)	5.097%
CC(C)C(NC(=O)Nc1ccc(F)cc1)C(=O)N(C)C (stereo not shown)	0.4843%
O=C1CCC(C(=O)NCc2nncn2-c2ccccc2)CN1 (stereo not shown)	3.677%
Cn1cc(I)c(C(=O)NCCCn2cc(Br)cn2)n1	1.263%
O=C(c1ccncc1)N1CCc2c(COCC3CC3)cncc2C1	0.7614%
COc1cccc(-c2nc(C)c(C(=O)N[C@@H](C)C(=O)O)s2)c1	-1.75%
OC(CN(Cc1ccccc1)Cc1ccon1)c1ccco1 (stereo not shown)	6.855%
CC(C)CN1C[C@@H]2OCC(=O)N(c3ccccc3)[C@@H]2C1	6.349% & 35.17%
CC(C)c1nc(C2CCCN2C(=O)c2ccc(C#N)cn2)no1 (stereo not shown)	7.347%
CN1CCCN(C(=O)NCc2cccnc2-n2cccn2)CC1	-0.5222%
CN1[C@H](Cn2cccn2)C[C@@H]2CN(Cc3cccs3)CC[C@@H]21	5.665%
O=C(NCc1ccc(F)cc1)C1CCCN(c2ccc3nncn3n2)C1 (stereo not shown)	3.321%
CNCc1n[nH]c(=O)n1-c1ccccc1Oc1ccccc1	3.186%
CCCc1n[nH]c(C2CN(CCNC3CCCCC3)CCO2)n1 (stereo not shown)	-5.055%
CN(Cc1ncc(-c2ccccc2C(=O)O)s1)c1ncccn1	11.62%
CC(C)c1ncc2c(n1)CN(Cc1nc(-c3cccs3)no1)CC2	13.15%
Cc1cccnc1N1CCN(C(=O)C(C)n2ccnc2C(C)C)CC1 (stereo not shown)	-0.122%
OC(COc1ccc(F)cc1)CN1CCC(c2ccn[nH]2)CC1 (stereo not shown)	1.575%
O=C(c1cccnc1)N1CCN2C[C@H](OCc3ccccc3)C[C@H]2C1	-2.5%
Cc1nc(C(=O)NCc2ccccn2)cc(C2CCCN2)n1 (stereo not shown)	1.632%
Nc1nc2c(c(NCc3cnc4c(c3)CCC4)n1)CCNC2	1.347%
Cc1ccc2[nH]c(=O)cc(C(=O)N[C@@H]3C[C@@H](CO)N(C)C3)c2c1	0%
c1ccc(CCNCC2Cn3nncc3CO2)cc1 (stereo not shown)	-15.37%
Cn1ncc(C(=O)OCC2CC(=O)N(c3ccccc3)C2)c1C(F)F (stereo not shown)	11.08%
COc1cc(NC(=O)N(C)Cc2ccc(Br)o2)ncn1	-4.959%
Cc1cnn(C(C)C(=O)NCC2CCN(c3cnn(C)c(=O)c3)CC2)c1 (stereo not shown)	4.485%
O=C1OCCN1CCNC(=O)C1(N2CCCCC2)Cc2ccccc2C1	12.14%
CC(=O)N1CCCN(CCCSCc2ccccc2)CC1	-5.652%
N#CCCNC(=O)CN1CC(n2cccn2)C1	14.25%
c1cnnc(N2CCCC2CNc2ncnc3ccccc23)c1 (stereo not shown)	11.49%
Cc1ccc(C(=O)N2CCCS2(=O)=O)cc1Cl	2.999%
CS(=O)(=O)c1cncnc1C1CCCN(C(=O)Nc2ccccc2F)C1 (stereo not shown)	-5.256%
COC(=O)c1cccnc1N1CCC(Oc2cccc(F)c2)CC1	-2.417%
CN(C1CCN(c2ccccn2)CC1)S(=O)(=O)c1ccc(F)cc1	11.59%
Cc1ccc(-c2cn[nH]c2C2CCCN(c3nccc(N)n3)C2)cc1 (stereo not shown)	-12.24%
Cc1nn(CCCNC(=O)C2CCN(S(C)(=O)=O)CC2)cc1Cl	-19.27%
NC(=O)Cn1c(SCc2noc(-c3ccsc3)n2)nnc1C1CC1	0.6483%
Cc1oc(-c2ccccc2)nc1C(=O)NC1=NCCS1	-2.355%
CC(Cn1cc(Br)cn1)C(=O)Nc1ccc(Br)cn1 (stereo not shown)	7.922%
O=C1NC(c2cccnc2)=NC12CCN(CCCc1ccccc1)CC2	6.71%
CCCS(=O)(=O)N1CCC2(CC(=O)N(c3cnn(C)c3)C2)C1 (stereo not shown)	5.161%
COCc1noc(CN2CC(Cc3ccccc3)CC2=O)n1 (stereo not shown)	0.6329%
Cc1nn2cccnc2c1C(=O)N1CCCC(n2cccn2)C1 (stereo not shown)	12.27%
c1ccc(-c2nc3c(c(NCc4nnc5n4CCC5)n2)CCNC3)cc1	9.63%
CN1C(=O)C2(CCN(C(=O)C3CCOCC3)CC2)c2ccccc21	-0.1287%
CCN1CCCC(O)(CN(C)Cc2ccc(C)o2)C1 (stereo not shown)	47.65% & 9.794%
CCCC(=O)N(CCCN1CCOCC1)c1nc2c(C)ccc(Cl)c2s1	9.937%
CNc1cc(C2CCCN2Cc2ccccc2C(=O)O)ccn1 (stereo not shown)	-8.056%
COc1cccc([C@@]2(O)CC[C@@H]3CN(C(=O)c4c[nH]nc4C)C[C@@H]32)c1	-7.506%
Cn1cc(C(=O)CC2CCCN2C(=O)c2coc3ccccc23)cn1 (stereo not shown)	-1.863%
O=C(CCN1CCCCC1c1cc2ccccc2[nH]1)N1CCOCC1 (stereo not shown)	14.78%
O=C(CS(=O)(=O)Cc1cc(Cl)c2c(c1)OCO2)N1CCCC1	4.215%
Cn1cc(CNCCNC(=O)Cc2ccccc2)c(-c2cccnc2)n1	4.382%
O=C(N[C@@H]1CCC[C@@H](N2CCOCC2)[C@@H]1O)c1ncccn1	-0.4866%
Cc1ccc(NC2CCN(C(=O)c3ccsc3)CC2)nn1	-1.687%
CNc1nc(C(=O)N2CCCC(CO)(CCCOC)C2)cs1 (stereo not shown)	-0.2439%
CSCCC(NC(N)=O)C(=O)NCc1cnn(-c2ccccc2)c1 (stereo not shown)	2.822%
CC(C)(C)CC(=O)N1CC[C@@H](CC(=O)O)[C@@H](CCN2CCCCC2)C1	10.16%
CC(=O)Nc1ccc(CC(=O)N2CC(S(=O)(=O)C3CCCCC3)C2)cc1	-10.78%
Cn1c(Cn2ccnc2)nnc1C1CCN(Cc2cccnc2N)CC1	-8.439%
CCn1c(CN(C)C)nnc1C1CCN(c2nccc(NC)n2)CC1	-0.4274%
c1cc(CN2CCO[C@@H]3CNC[C@@H]32)cs1	9.583%
O=C(NCc1cc[nH]n1)NC1CCCN(c2ncccn2)C1 (stereo not shown)	2.024%
CN(C)c1ccccc1CN1CCCCC1CNS(C)(=O)=O (stereo not shown)	5.119%
CSCCCN1C[C@H](NC(=O)c2ccc(CO)cc2)[C@@H](C2CC2)C1	-7.775%
CCS(=O)(=O)N1CCc2ccc(=O)n(CC3CC3)c2CC1	3.158%
CCCS(=O)(=O)Nc1ccc2c(c1)OCC(C)(C)C(=O)N2C	-0.6397%

Repeated from the top, 8 entries:

| SMILES | Percent Effect |
|---|---|
| `CN(C)c1nccc(C2CCCN2S(=O)(=O)c2cn(C)cn2)n1` (stereo not shown) | 9.765% |
| `O=C(C[C@@H]1COC[C@H]2CN(C(=O)c3ccccn3)C[C@@H]12)N1CCCC1` | 9.532% |
| `Cc1nc(C(=O)N(C)CC(F)(F)C(F)(F)F)c2ccccn12` | 1.966% |
| `Cc1ccc(CN2CCC3(CC2)NC(=O)CC3c2ccccc2)s1` (stereo not shown) | 4.471% |
| `O=C1CCCCCN1CCC(=O)N1CCCC(c2ccn[nH]2)C1` (stereo not shown) | 4.637% |
| `COCCc1noc(-c2cn(Cc3ccc(OC)cc3)nn2)n1` | 3.354% |
| `Cn1ccnc1CC1CCCN(C(=O)Cc2ccccc2)C1` (stereo not shown) | 5.097% |
| `CC(C)C(NC(=O)Nc1ccc(F)cc1)C(=O)N(C)C` (stereo not shown) | 0.4843% |